Experimental data reported in the supplement of paper PMC12067093, “Discovery and optimisation of a covalent ligand for TRIM25 and its application to targeted protein ubiquitination” (Chemical Science, 2025).
This is one part of the list.

Amino acid sequences for entries named in this document (tags omitted). A change or cut given only in a name is not applied to a line headed by its entry.
UniProt O95782: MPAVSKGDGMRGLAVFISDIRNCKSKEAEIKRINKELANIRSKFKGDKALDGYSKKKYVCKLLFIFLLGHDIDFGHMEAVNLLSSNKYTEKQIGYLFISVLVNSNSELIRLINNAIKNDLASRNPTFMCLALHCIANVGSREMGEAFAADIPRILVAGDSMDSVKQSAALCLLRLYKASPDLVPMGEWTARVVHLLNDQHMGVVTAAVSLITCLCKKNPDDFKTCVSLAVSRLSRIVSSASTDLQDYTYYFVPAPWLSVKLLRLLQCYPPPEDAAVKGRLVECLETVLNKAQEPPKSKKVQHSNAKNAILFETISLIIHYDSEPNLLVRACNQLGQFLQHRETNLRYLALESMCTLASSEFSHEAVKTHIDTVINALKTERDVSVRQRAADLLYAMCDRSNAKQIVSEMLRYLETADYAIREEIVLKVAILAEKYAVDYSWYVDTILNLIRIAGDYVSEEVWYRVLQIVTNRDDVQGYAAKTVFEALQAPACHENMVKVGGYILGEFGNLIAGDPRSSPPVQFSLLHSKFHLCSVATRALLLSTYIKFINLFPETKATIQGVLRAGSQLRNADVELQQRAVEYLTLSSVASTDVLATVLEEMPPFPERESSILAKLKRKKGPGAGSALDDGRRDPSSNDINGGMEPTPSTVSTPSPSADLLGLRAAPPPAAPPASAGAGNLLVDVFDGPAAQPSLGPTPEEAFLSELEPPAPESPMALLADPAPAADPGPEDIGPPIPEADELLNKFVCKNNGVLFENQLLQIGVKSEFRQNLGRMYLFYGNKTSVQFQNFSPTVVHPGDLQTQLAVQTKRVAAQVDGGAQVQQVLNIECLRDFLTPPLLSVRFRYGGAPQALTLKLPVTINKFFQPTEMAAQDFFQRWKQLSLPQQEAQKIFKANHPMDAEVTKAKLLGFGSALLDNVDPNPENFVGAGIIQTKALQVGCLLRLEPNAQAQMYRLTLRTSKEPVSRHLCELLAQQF
UniProt Q9NXR5: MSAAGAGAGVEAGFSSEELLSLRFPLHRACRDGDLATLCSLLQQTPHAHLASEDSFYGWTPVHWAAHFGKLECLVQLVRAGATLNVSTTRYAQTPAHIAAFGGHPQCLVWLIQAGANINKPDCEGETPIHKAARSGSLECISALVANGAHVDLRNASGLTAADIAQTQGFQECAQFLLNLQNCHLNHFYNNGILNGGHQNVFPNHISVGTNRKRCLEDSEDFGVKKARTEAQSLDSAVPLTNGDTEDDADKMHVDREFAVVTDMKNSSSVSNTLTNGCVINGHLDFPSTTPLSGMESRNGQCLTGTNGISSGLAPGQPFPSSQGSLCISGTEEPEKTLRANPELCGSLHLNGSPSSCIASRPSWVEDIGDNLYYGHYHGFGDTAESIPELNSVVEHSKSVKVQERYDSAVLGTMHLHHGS
UniProt Q2VPB7: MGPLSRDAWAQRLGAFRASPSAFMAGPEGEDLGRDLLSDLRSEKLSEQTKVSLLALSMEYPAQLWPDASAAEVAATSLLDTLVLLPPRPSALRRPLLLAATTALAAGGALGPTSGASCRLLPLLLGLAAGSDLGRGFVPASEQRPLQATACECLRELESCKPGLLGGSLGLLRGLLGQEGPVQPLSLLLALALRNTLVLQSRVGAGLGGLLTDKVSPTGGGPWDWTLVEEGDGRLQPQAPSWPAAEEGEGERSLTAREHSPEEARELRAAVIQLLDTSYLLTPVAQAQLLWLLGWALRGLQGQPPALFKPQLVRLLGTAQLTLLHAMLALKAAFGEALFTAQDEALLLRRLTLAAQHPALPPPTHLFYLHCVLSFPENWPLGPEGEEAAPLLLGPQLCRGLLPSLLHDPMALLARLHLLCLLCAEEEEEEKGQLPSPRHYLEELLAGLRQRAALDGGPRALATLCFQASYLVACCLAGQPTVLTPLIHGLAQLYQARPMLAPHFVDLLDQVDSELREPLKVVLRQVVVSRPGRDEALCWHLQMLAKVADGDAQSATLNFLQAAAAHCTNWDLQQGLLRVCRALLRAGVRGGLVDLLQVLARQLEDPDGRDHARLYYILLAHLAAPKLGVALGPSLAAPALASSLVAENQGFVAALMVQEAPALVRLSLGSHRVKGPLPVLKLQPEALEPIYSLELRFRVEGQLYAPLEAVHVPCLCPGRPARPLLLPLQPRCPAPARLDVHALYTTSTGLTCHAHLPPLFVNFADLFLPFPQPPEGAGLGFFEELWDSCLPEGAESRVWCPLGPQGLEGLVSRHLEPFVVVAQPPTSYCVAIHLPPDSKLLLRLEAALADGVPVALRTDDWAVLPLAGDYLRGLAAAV
UniProt Q96GX9: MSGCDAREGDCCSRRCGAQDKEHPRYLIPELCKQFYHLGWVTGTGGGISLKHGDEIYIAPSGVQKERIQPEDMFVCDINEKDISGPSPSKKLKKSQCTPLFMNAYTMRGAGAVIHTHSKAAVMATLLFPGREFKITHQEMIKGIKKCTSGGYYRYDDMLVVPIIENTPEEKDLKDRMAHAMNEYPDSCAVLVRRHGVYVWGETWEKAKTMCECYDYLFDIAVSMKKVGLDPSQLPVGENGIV
UniProt Q06481, whole entry, looked up: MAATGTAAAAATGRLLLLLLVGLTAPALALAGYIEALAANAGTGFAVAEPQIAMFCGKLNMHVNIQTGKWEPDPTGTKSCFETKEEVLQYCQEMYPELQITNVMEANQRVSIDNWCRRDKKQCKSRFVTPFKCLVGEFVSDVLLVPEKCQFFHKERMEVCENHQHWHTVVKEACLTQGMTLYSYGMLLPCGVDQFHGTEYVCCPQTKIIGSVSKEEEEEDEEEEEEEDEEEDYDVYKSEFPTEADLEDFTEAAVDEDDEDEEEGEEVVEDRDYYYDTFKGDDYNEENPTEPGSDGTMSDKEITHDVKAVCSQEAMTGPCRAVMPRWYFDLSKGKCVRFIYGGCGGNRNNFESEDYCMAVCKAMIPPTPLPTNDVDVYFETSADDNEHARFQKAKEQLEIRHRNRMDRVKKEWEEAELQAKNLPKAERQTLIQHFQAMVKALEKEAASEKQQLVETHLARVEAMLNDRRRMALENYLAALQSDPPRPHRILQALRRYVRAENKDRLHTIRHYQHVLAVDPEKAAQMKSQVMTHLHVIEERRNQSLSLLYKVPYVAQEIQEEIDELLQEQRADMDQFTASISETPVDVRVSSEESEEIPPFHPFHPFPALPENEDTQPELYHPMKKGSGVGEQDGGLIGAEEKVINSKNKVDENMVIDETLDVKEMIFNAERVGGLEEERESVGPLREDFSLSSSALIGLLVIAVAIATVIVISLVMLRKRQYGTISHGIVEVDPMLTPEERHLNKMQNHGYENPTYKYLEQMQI
UniProt P63010: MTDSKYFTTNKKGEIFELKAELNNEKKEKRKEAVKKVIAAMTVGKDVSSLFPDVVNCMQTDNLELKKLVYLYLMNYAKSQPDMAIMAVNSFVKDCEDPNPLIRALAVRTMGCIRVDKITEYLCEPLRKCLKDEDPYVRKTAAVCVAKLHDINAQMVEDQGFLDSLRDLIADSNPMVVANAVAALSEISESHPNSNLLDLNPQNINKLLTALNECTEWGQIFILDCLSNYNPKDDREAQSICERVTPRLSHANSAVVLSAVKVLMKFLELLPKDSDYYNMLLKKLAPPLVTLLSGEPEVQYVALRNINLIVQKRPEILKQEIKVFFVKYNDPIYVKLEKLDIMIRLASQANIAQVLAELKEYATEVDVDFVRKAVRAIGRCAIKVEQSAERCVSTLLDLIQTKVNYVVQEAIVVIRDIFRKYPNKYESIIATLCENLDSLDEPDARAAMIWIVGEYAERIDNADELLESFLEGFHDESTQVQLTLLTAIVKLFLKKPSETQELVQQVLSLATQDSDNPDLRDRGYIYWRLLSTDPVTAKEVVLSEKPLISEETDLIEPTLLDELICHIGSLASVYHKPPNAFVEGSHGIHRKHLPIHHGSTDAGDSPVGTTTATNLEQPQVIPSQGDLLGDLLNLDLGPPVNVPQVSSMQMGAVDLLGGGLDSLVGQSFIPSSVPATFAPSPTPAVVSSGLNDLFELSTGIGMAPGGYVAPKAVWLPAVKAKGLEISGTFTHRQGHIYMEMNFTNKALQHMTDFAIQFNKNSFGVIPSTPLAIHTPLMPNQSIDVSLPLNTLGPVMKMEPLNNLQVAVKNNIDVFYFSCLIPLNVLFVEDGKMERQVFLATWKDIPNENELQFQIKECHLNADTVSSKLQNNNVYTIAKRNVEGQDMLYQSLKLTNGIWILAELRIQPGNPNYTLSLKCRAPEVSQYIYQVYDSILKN
UniProt O75843: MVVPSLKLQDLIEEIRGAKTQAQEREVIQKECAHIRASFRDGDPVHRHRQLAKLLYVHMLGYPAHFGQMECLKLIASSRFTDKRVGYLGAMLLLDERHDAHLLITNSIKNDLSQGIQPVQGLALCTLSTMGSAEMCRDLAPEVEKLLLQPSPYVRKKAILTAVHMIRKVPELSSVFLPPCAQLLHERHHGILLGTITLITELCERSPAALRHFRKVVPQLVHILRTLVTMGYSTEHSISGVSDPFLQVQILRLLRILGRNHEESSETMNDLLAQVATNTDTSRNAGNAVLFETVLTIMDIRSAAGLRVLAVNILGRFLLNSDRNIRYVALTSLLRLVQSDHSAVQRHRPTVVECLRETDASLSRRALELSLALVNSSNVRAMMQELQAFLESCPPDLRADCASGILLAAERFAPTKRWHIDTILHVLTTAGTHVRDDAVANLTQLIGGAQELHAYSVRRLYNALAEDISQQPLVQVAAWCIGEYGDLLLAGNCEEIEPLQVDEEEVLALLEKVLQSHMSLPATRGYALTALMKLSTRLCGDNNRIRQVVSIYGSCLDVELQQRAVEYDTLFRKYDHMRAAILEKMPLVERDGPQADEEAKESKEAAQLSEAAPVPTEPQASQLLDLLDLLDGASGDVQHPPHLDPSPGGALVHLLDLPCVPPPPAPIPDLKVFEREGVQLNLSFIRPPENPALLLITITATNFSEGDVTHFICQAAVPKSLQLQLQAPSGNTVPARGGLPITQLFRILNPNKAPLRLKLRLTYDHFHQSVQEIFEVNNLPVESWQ
UniProt Q9P2G1: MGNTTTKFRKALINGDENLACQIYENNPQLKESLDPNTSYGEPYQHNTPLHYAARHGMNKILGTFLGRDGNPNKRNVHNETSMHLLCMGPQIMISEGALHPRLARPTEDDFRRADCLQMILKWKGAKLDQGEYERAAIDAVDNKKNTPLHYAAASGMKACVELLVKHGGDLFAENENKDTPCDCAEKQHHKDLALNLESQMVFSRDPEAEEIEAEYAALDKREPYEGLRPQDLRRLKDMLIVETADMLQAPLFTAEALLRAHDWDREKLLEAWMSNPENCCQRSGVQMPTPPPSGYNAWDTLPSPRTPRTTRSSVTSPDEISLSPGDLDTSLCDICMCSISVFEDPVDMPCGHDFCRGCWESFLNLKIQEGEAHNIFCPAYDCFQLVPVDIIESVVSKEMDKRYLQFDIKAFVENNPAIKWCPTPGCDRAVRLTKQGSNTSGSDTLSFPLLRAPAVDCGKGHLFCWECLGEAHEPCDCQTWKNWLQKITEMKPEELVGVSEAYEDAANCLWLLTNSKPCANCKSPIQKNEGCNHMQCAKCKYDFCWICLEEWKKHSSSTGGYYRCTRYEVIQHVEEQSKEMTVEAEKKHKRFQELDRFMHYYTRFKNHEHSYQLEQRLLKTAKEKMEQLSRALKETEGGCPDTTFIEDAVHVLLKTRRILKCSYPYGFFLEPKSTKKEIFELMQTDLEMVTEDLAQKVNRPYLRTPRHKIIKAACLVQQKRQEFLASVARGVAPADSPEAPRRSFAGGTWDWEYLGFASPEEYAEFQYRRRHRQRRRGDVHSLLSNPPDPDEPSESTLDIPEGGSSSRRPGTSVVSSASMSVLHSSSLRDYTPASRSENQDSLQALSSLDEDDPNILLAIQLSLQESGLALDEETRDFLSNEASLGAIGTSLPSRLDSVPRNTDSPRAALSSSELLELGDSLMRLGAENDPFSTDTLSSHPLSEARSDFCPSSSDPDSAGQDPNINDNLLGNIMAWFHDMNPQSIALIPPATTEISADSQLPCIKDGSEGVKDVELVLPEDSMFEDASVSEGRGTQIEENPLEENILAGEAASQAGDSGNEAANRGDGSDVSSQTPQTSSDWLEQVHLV
UniProt Q96CW1: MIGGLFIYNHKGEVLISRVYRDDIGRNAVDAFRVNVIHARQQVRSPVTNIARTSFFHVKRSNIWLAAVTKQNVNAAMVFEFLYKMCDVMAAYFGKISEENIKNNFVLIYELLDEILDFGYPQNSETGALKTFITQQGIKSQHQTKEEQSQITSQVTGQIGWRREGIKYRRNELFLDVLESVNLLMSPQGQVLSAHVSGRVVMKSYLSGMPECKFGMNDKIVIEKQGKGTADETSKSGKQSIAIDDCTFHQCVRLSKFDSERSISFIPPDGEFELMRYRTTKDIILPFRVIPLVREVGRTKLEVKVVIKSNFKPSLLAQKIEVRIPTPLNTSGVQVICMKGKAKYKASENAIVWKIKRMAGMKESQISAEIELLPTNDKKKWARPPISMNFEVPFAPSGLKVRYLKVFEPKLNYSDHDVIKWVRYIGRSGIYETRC

Compound: Cc1cc(ccc1-c1ccccc1)C(=O)N1CCCN(CC1)C(=O)CCl [compound 10]
Assay: probe-labelled cysteine peptide fold change vs DMSO (competition) (log2 fold change); higher = less target engagement (more negative = stronger competition)
Conditions: THP-1, incubation time: 4 h
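Also: competitive profiling in live THP-1 cells: cysteine peptides tagged with an iodoacetamide desthiobiotin (IA-DTB) probe, intensity after compound treatment relative to DMSO-treated cells.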

| Target | probe-labelled cysteine peptide fold change (10 µM) | probe-labelled cysteine peptide fold change (50 µM) |
| --- | --- | --- |
| AP2A1_O95782_941_ALQVGCLLR (UniProt O95782) | 0.223 | 0.492 |
| ANKRD10_Q9NXR5_140_SGSLECISALVANGAHVDLR (UniProt Q9NXR5) | -0.235 | -0.443 |
| AP3D1_O14617_208_EKLEDPDPGVQSAAVNVICELAR (UniProt O14617) | -0.0755 | 0.0581 |
| ANXA2_P07355_262_EVKGDLENAFLNLVQCIQNK (UniProt P07355) | -0.0705 | -0.366 |
| ANKRD17_O75179_672_TTANNDHTVLSLACAGGHLAVVELLLAHGADPTHR (UniProt O75179) | 0.191 | 0.414 |
| AP5B1_Q2VPB7_420_LHLLCLLCAEEEEEEK (UniProt Q2VPB7) | 0.0845 | 0.0577 |
| APC_P25054_661_ENNCLQTLLQHLK (UniProt P25054) | -0.139 | -0.186 |
| ANKRD44_Q8N8A2_731_GIMTGHEECVQMLLEQEVSILCK (UniProt Q8N8A2) | 0.0528 | -0.279 |
| APIP_Q96GX9_147_CTSGGYYR (UniProt Q96GX9) | 0.069 | 0.0716 |
| APLP2_Q06481_310_AVCSQEAMTGPCR (UniProt Q06481) | -0.469 | -0.85 |
| AP2B1_P63010_241_EAQSICER (UniProt P63010) | -0.254 | 0.00355 |
| AP1B1_Q10567_433_YESVIATLCENLDSLDEPEAR (UniProt Q10567) | 0.44 | 0.534 |
| AP1G2_O75843_393_AMMQELQAFLESCPPDLR (UniProt O75843) | 0.116 | 0.369 |
| ANLN_Q9NQW6_1037_INLANCTSR (UniProt Q9NQW6) | -0.121 | -0.171 |
| ANKIB1_Q9P2G1_640_ETEGGCPDTTFIEDAVHVLLK (UniProt Q9P2G1) | -0.331 | -0.322 |
| AP2M1_Q96CW1_337_IPTPLNTSGVQVICMK (UniProt Q96CW1) | -0.0259 | -0.0798 |
| AOC1_P19801_181_CLAFTDVAPR (UniProt P19801) | -0.0889 | -0.0715 |

Single records (already shown).
AP1G2_O75843_393_AMMQELQAFLESCPPDLR (UniProt O75843) reads probe-labelled cysteine peptide fold change (10 µM): 0.116; probe-labelled cysteine peptide fold change (50 µM): 0.369
AP2A1_O95782_941_ALQVGCLLR (UniProt O95782) reads probe-labelled cysteine peptide fold change (10 µM): 0.223; probe-labelled cysteine peptide fold change (50 µM): 0.492
